{
  "sequences": {"note": "Amino acid sequences for entries named in this document (tags omitted). A change or cut given only in a name is not applied to a line headed by its entry.", "UniProt Q96RI1": "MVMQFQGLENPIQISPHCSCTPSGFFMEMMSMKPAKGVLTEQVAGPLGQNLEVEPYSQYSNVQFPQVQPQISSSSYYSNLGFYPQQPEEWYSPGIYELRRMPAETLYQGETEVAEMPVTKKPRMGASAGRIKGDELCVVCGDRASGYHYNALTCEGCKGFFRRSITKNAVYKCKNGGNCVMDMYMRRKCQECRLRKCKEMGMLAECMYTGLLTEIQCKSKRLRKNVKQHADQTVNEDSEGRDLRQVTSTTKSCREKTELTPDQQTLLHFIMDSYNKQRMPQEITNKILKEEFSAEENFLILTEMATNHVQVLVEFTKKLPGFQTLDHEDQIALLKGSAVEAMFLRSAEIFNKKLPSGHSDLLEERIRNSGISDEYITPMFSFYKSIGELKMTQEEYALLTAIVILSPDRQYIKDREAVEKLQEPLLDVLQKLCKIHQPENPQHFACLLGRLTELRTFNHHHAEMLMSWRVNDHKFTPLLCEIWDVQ"},
  "source": "PubChem BioAssay (EPA / NIEHS)",
  "molecular_target": "Bile acid receptor (Homo sapiens) (UniProt Q96RI1)",
  "experiment": "OT_FXR_FXRSRC1_1440: Odyssey Thera (OT) 24-hour HEK293T Protein-Complementation Assay for Farnesoid X receptor/SRC-1 Co-activator (AID 2283384); active = hit-call score of the fitted dose curve at least 0.9, where 1 is the maximum; inconclusive = response in the unintended direction; inactive = score below 0.9",
  "summary_of_the_method": "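Cell-based binding reporter: interaction of FXR with SRC-1 brings reporter fragments together, giving a fluorescence signal read 24 h after dosing of HEK293T cells.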",
  "note": "Inconclusive means that the source gave no clear call. Potencies beside an inconclusive call are fits to weak or partial responses and may not hold up.",
  "data": [
    {"smiles": "Cc1ccc(Cl)cc1", "values": [
      {"measurement": "AC50", "result": "inconclusive: 50 µM"}
    ]},
    {"smiles": "CCCCC(C=O)CC", "note": "(stereo not drawn)", "values": [
      {"measurement": "AC50", "result": "inconclusive: 12.2 µM"}
    ]},
    {"smiles": "CCN(Cc1c(F)cccc1Cl)c1c([N+](=O)[O-])cc(C(F)(F)F)cc1[N+](=O)[O-]", "values": [
      {"measurement": "AC50", "result": "inconclusive: 50 µM"}
    ]}
  ]
}
